According to article PMC9985596:
These are yes or no findings as the source states them, for the method shown. In cells and extracts the contact can be indirect. Some entries that bind do so weakly or less than the wild type. Tags and fused reporters may be left off the sequences shown.

Amino acid sequences for entries named in this document (tags omitted).
UniProt Q9UJX4: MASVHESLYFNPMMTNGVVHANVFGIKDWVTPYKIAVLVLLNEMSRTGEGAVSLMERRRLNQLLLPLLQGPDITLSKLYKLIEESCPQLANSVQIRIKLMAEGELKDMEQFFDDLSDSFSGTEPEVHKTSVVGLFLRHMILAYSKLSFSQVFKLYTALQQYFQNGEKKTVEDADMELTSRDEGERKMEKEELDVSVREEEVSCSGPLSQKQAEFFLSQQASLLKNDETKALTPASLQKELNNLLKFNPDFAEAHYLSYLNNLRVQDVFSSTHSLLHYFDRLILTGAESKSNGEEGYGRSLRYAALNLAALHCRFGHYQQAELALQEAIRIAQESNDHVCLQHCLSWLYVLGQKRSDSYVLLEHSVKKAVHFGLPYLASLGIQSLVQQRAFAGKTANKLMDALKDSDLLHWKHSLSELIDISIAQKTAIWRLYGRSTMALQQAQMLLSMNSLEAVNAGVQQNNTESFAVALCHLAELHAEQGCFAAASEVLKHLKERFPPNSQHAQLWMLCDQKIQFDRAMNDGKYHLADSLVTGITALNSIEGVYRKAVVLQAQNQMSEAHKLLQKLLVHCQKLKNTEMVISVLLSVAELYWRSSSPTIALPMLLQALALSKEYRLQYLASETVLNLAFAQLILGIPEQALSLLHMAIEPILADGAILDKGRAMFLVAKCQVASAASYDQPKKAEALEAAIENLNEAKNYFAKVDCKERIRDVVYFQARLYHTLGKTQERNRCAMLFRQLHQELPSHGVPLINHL
UniProt Q9H1A4: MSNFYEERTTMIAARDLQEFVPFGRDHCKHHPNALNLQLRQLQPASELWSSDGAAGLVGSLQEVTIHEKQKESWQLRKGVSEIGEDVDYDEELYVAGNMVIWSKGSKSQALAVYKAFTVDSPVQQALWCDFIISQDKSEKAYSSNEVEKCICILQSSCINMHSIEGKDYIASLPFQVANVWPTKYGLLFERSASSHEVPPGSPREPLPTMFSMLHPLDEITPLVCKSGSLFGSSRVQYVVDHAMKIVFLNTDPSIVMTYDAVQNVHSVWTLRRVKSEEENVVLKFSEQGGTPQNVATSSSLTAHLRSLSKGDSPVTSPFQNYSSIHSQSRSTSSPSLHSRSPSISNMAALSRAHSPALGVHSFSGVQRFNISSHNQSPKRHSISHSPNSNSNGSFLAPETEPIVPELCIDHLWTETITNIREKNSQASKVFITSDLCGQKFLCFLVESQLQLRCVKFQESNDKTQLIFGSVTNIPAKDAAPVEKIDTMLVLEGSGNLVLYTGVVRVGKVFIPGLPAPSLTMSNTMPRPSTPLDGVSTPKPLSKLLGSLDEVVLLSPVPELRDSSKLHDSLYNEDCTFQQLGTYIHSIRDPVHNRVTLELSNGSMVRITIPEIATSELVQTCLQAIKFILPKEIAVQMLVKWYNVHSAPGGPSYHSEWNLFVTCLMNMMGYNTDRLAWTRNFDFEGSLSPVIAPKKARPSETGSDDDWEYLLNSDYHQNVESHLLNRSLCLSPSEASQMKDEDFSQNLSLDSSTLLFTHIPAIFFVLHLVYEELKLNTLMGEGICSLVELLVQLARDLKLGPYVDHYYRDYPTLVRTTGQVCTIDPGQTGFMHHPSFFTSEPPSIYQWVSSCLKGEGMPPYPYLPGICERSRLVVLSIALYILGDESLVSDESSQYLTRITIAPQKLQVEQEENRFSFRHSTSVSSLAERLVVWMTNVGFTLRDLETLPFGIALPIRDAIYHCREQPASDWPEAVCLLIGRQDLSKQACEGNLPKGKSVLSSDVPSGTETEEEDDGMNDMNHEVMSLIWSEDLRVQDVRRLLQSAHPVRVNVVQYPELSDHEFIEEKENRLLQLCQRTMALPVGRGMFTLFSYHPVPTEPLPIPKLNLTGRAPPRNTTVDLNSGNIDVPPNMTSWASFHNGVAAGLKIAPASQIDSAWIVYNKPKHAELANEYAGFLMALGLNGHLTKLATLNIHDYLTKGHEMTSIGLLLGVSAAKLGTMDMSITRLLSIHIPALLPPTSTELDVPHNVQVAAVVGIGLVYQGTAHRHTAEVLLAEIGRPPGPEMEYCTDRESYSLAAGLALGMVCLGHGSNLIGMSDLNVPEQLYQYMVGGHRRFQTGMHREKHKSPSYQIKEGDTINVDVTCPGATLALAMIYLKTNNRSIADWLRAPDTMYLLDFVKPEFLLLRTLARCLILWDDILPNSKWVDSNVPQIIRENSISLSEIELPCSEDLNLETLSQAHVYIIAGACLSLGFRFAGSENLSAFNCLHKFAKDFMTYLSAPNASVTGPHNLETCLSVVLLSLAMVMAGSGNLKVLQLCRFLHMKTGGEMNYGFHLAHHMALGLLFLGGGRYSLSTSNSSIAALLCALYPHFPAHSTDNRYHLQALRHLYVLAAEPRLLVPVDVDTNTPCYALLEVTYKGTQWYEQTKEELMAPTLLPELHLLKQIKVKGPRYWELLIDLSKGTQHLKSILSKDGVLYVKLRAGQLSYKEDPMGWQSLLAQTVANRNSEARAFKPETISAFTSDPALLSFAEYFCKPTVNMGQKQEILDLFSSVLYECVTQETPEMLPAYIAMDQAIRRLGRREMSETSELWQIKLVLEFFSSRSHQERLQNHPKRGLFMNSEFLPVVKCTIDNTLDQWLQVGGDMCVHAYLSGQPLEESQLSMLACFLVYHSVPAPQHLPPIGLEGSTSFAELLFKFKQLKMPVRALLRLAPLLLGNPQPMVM

Key:
[1] = molecular target: T1, FLAG-RECQ4(1-240) (human) (UniProt O94761); test: co-IP; FLAG-RECQ4 constructs transiently overexpressed in RECQ4 KD HEK293 cells, immunopurified on M2 agarose from CB fractions; western blot, prey normalised to the bait (Fig. 4a, c)
T1 sequence: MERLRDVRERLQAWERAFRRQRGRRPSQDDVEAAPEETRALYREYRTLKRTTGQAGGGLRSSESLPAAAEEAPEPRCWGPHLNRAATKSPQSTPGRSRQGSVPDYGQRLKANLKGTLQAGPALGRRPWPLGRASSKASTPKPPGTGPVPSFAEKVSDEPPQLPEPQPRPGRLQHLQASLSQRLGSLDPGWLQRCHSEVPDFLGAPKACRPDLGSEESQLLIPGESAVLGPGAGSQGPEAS

[2] = molecular target: T2, FLAG-tagged RECQ4 wild type (human) (UniProt O94761); test: as above
T2 sequence: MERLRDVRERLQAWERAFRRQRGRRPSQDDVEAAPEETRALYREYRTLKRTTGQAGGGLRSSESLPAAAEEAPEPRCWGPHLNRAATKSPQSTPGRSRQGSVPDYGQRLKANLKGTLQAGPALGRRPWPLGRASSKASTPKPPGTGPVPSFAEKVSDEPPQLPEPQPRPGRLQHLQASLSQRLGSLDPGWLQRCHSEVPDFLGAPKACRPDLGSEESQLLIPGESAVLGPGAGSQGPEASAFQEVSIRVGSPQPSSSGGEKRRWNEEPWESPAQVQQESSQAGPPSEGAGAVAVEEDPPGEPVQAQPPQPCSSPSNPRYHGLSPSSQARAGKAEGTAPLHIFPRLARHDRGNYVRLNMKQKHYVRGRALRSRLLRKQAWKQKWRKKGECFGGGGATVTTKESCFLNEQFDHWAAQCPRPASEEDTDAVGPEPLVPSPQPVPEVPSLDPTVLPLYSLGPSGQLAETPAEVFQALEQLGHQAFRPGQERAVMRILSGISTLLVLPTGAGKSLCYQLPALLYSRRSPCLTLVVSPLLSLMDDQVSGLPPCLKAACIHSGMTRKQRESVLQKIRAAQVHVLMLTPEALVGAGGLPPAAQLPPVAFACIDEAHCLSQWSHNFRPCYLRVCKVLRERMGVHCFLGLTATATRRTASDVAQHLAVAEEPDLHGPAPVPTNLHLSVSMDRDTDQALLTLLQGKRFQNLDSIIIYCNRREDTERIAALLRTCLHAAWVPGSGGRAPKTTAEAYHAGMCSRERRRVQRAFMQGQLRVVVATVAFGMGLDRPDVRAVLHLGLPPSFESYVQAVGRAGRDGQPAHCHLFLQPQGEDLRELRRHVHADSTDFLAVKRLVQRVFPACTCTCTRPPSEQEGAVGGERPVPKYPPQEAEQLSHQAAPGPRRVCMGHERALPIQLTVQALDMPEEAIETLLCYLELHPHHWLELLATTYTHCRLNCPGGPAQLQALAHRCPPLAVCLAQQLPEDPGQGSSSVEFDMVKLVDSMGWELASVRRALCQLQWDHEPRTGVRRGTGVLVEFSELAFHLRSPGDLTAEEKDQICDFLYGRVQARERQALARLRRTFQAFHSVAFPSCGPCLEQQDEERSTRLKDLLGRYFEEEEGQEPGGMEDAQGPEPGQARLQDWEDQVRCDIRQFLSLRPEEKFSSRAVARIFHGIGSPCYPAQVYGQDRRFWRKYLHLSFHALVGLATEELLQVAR

[3] = molecular target: T3, FLAG-tagged RECQ4 D1093X mutant (human) (UniProt O94761); test: co-IP; FLAG-RECQ4 proteins on anti-FLAG M2 agarose from chromatin-bound (CB) fractions of stable RECQ4 KD HEK293 cells; western blot (Fig. 2d right, Fig. 7g)
T3 sequence: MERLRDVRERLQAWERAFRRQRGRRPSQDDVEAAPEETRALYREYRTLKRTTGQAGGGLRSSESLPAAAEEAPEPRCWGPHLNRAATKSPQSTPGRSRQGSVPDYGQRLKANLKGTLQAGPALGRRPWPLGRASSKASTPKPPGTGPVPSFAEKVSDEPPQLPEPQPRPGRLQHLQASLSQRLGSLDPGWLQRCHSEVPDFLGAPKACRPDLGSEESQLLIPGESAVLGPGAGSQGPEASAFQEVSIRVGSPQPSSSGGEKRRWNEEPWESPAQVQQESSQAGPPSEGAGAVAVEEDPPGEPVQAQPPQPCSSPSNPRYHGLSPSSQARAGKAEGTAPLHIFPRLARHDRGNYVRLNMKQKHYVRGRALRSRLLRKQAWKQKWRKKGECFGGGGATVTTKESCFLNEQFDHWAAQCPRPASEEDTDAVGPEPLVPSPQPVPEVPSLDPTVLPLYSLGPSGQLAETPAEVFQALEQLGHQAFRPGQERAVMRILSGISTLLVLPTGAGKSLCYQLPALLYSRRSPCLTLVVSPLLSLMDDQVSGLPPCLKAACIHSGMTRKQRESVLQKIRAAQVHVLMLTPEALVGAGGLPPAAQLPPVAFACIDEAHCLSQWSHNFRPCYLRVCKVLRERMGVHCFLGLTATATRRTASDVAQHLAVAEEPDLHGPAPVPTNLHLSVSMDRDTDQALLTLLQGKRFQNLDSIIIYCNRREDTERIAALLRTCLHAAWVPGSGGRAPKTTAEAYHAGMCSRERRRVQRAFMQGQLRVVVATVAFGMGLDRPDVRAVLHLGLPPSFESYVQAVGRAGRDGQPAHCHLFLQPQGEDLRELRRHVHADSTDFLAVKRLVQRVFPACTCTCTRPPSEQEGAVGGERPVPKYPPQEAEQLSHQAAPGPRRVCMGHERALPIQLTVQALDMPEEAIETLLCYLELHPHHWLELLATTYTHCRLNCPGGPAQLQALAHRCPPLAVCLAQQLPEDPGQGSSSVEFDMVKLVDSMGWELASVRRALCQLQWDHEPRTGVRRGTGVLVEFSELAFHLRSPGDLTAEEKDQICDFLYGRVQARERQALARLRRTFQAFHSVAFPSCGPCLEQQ

Measured: binding

APC5 (from UniProt Q9UJX4 1-755)
binds: all assays above

APC1 (from UniProt Q9H1A4 1-1944)
binds: all assays above
